{"source": "PubChem BioAssay AID540276", "about": "(National Center for Advancing Translational Sciences (NCATS), 2011)", "note": "About 5,400 (1.8%) of roughly 300,000 compounds were called active. This list was built around the results that the source calls inconclusive (neither active nor inactive); the mix of calls is not that of the screen. Calls follow the shape of the full dose curve; tested in HEK293 cells. A potency beside an inconclusive call is a rough fit, not a confirmed value. Potency is read from the fitted curve at half-maximal effect."}
{"experiment": "qHTS for inhibitors of binding or entry into cells for Marburg Virus", "settings": "Marburg virus pseudotyped entry inhibition, cell reporter; series mostly up to 37.8 µM"}
{"smiles": "O=C(C1CCCN(S(=O)(=O)c2cccc3nsnc23)C1)N1CCN(c2ccccc2F)CC1", "note": "(stereo not drawn)", "Potency": "inactive"}
{"smiles": "O=C(CSc1ncnc2ccccc12)Nc1ccc2c(c1)OCO2", "Potency": "inactive"}
{"smiles": "COc1ccccc1NC(=O)c1sc2nc(C)c(C(=O)Nc3ccc(C)cc3C)c(-c3ccco3)c2c1N", "Potency": "inconclusive: 31.6 µM [activator, single point]"}
{"smiles": "Cc1cccnc1CN1CCN(C(=O)CCc2nnc(CCc3ccccc3)o2)CC1", "Potency": "inconclusive: 5.62 µM [activator, partial curve, poor fit]"}
{"smiles": "CCC1=Nc2cc(C(=O)NC3CCC(C)CC3)ccc2Sc2ccc(C)cc21", "note": "(stereo not drawn)", "Potency": "inconclusive: 7.08 µM [inhibitor, partial curve, poor fit]"}
{"smiles": "O=C(Nc1cccc(Cl)c1)Nc1cc(S(=O)(=O)N2CCOCC2)ccc1N1CCCC1", "Potency": "inconclusive: 14.1 µM [inhibitor, single point]"}
{"smiles": "O=C(COC(=O)c1ccc2c(c1)OCO2)Nc1ccccc1", "Potency": "inactive"}
{"smiles": "CCN1CCN(CCNC(=O)c2ccc3c(c2)N(Cc2cccc(Cl)c2)C(=O)c2ccccc2S3=O)CC1", "note": "(stereo not drawn)", "Potency": "inconclusive: 11.2 µM [inhibitor, partial curve, poor fit]"}
{"smiles": "Cc1cccc(NC(=O)COC(=O)CCCC2=NS(=O)(=O)c3ccccc3N2)c1", "Potency": "inactive"}
{"smiles": "O=C(Cn1ccc2cc(S(=O)(=O)N3CCCCC3)ccc21)NCc1ccccc1F", "Potency": "inconclusive: 35.5 µM [inhibitor, single point]"}
{"smiles": "CC(=O)/C(=N\\Nc1ccccc1)Sc1nnc(-c2ccccc2)n1-c1ccccc1", "Potency": "inconclusive: 11.2 µM [inhibitor, single point]"}
{"smiles": "CCOc1ccccc1N(CC(=O)NCCc1ccc(OC)c(OC)c1)S(=O)(=O)c1ccccc1", "Potency": "inconclusive: 10 µM [inhibitor, partial curve, poor fit]"}
{"smiles": "CN(CC(=O)Nc1ccc(N2CCOCC2)cc1)C(=O)CCc1ccccc1Cl", "Potency": "inconclusive: 35.5 µM [activator, single point]"}
{"smiles": "CC(C)(C)OC(=O)N1CCC[C@H]1C(=O)NCC1CCC(C(=O)O)CC1", "note": "(stereo partly drawn)", "Potency": "inactive"}
{"smiles": "Cc1ccc(C(=O)N/C(=C\\c2ccc(-c3ccccc3[N+](=O)[O-])o2)C(=O)NCCCN(C)C)cc1", "Potency": "inconclusive: 11.2 µM [inhibitor, partial curve, poor fit]"}
{"smiles": "CNc1nc(C)nc(-n2nc(C)cc2C)n1", "Potency": "inconclusive: 12.6 µM [activator, single point]"}
{"smiles": "O=C(CCC1CCCN(C(=O)c2ccc3[nH]ccc3c2)C1)N1CCN(c2ccccn2)CC1", "note": "(stereo not drawn)", "Potency": "inconclusive: 25.1 µM [inhibitor, single point]"}
{"smiles": "CCSc1nnc(NC(=O)CSc2nnc(CNC(=O)c3ccc(OC)cc3)o2)s1", "Potency": "inconclusive: 6.31 µM [activator, full curve]"}
{"smiles": "Cc1cccc(NC(=O)c2c(C)cc(C)nc2SCC(=O)c2ccccc2)c1", "Potency": "inconclusive: 1 µM [inhibitor, full curve, poor fit]"}
{"smiles": "O=C(c1ccco1)N1CCN(CC(O)Cn2c3ccccc3c3ccccc32)CC1", "note": "(stereo not drawn)", "Potency": "inactive"}
{"smiles": "CCC(c1nnnn1C1CCCC1)N1CCN(c2ccccc2)CC1", "note": "(stereo not drawn)", "Potency": "inconclusive: 35.5 µM [inhibitor, single point]"}
{"smiles": "CC(=O)N(c1ccccc1)C1CC(C)N(C(=O)c2ccccc2)c2ccccc21", "note": "(stereo not drawn)", "Potency": "inconclusive: 1.12 µM [inhibitor, full curve, poor fit]"}
{"smiles": "Cc1ccc(C)c(NC(=O)CSc2nnc(CSc3nc(C)cc(C)n3)n2Cc2ccco2)c1", "Potency": "inactive"}
{"smiles": "CC(C)c1ccc(N2CC(C)(C)C2=O)cc1", "Potency": "inactive"}
{"smiles": "COc1ccc(CN2CCN(c3cccc(C)c3C)CC2)cc1OC", "Potency": "inactive"}
{"smiles": "Cc1c(NC(=O)C(C)OC(=O)c2cc(-c3cccc4ccccc34)nc3ccccc23)c(=O)n(-c2ccccc2)n1C", "note": "(stereo not drawn)", "Potency": "inconclusive: 6.31 µM [inhibitor, partial curve, poor fit]"}
{"smiles": "Cc1cc(NC(=O)CCN2CCN(Cc3ccccc3)CC2)ccc1Br", "Potency": "inactive"}
{"smiles": "CCOC(=O)Cn1c(=S)[nH]c2c(oc3ccc(Cl)cc32)c1=O", "Potency": "inactive"}
{"smiles": "N#CC(C#N)=NNc1ccc([N+](=O)[O-])cc1", "Potency": "inconclusive: 20 µM [inhibitor, partial curve, poor fit]"}
{"smiles": "COc1ccc2[nH]c(=O)c(CN(Cc3cccs3)Cc3nnnn3Cc3ccccc3)cc2c1", "Potency": "inconclusive: 29.1 µM [inhibitor, single point]"}
{"smiles": "CC(=O)Nc1ccc(NC(=O)Cc2ccc(S(=O)(=O)N3CCCCC3)s2)cc1", "Potency": "inconclusive: 1.12 µM [activator, partial curve, poor fit]"}
{"smiles": "Cc1ccc2[nH]c(C)c(/C=C/c3cc[n+](C)cc3)c2c1", "Potency": "active: 8.91 µM"}
{"smiles": "CCC(C)(C)NC(=O)C(c1ccc(C)cc1)N(CC1CCCO1)C(=O)c1csnn1", "note": "(stereo not drawn)", "Potency": "inactive"}
{"smiles": "Cc1ccc(/C=N/NC(=O)c2c[nH]c3ccccc23)o1", "Potency": "inactive"}
{"smiles": "CCOC(=O)c1ccc(S(=O)(=O)N2CCN(C3CCCC3)CC2)cc1", "Potency": "inactive"}
{"smiles": "Cc1ccc(N(CC(=O)Nc2ccccc2-c2ccccc2)S(=O)(=O)c2ccccc2)c(C)c1", "Potency": "inconclusive: 14.6 µM [inhibitor, partial curve, poor fit]"}
{"smiles": "CC1CC(C)CN(CCOCCSc2ccccc2)C1", "note": "(stereo not drawn)", "Potency": "inconclusive: 4.11 µM [inhibitor, full curve, poor fit]"}
{"smiles": "O=C(NCCN1CCN(c2ccccc2Cl)CC1)Nc1ccccc1", "Potency": "inactive"}
{"smiles": "COc1cccc(NC(=O)CCCCCn2nnc3ccccc3c2=O)c1", "Potency": "inconclusive: 3.16 µM [inhibitor, single point]"}
{"smiles": "FC(F)(F)c1cc(-c2ccccc2)nc(N2CCCCCC2)n1", "Potency": "inactive"}
{"smiles": "C/C(=N\\NC(=S)NCc1ccccc1)c1ccccc1", "Potency": "inconclusive: 35.5 µM [inhibitor, single point]"}
{"smiles": "COc1ccc(C(=O)NC2CCCc3ccccc32)cc1[N+](=O)[O-]", "note": "(stereo not drawn)", "Potency": "inconclusive: 10 µM [inhibitor, partial curve, poor fit]"}
{"smiles": "COc1ccc(C(=O)NC(=S)NNC(=O)[C@H]2C[C@@H]2c2ccccc2)cc1OC", "Potency": "inconclusive: 14.1 µM [inhibitor, single point]"}
